Protein sequences, listed by entry. Tags and fused reporters are not part of them.
UniProt P15924: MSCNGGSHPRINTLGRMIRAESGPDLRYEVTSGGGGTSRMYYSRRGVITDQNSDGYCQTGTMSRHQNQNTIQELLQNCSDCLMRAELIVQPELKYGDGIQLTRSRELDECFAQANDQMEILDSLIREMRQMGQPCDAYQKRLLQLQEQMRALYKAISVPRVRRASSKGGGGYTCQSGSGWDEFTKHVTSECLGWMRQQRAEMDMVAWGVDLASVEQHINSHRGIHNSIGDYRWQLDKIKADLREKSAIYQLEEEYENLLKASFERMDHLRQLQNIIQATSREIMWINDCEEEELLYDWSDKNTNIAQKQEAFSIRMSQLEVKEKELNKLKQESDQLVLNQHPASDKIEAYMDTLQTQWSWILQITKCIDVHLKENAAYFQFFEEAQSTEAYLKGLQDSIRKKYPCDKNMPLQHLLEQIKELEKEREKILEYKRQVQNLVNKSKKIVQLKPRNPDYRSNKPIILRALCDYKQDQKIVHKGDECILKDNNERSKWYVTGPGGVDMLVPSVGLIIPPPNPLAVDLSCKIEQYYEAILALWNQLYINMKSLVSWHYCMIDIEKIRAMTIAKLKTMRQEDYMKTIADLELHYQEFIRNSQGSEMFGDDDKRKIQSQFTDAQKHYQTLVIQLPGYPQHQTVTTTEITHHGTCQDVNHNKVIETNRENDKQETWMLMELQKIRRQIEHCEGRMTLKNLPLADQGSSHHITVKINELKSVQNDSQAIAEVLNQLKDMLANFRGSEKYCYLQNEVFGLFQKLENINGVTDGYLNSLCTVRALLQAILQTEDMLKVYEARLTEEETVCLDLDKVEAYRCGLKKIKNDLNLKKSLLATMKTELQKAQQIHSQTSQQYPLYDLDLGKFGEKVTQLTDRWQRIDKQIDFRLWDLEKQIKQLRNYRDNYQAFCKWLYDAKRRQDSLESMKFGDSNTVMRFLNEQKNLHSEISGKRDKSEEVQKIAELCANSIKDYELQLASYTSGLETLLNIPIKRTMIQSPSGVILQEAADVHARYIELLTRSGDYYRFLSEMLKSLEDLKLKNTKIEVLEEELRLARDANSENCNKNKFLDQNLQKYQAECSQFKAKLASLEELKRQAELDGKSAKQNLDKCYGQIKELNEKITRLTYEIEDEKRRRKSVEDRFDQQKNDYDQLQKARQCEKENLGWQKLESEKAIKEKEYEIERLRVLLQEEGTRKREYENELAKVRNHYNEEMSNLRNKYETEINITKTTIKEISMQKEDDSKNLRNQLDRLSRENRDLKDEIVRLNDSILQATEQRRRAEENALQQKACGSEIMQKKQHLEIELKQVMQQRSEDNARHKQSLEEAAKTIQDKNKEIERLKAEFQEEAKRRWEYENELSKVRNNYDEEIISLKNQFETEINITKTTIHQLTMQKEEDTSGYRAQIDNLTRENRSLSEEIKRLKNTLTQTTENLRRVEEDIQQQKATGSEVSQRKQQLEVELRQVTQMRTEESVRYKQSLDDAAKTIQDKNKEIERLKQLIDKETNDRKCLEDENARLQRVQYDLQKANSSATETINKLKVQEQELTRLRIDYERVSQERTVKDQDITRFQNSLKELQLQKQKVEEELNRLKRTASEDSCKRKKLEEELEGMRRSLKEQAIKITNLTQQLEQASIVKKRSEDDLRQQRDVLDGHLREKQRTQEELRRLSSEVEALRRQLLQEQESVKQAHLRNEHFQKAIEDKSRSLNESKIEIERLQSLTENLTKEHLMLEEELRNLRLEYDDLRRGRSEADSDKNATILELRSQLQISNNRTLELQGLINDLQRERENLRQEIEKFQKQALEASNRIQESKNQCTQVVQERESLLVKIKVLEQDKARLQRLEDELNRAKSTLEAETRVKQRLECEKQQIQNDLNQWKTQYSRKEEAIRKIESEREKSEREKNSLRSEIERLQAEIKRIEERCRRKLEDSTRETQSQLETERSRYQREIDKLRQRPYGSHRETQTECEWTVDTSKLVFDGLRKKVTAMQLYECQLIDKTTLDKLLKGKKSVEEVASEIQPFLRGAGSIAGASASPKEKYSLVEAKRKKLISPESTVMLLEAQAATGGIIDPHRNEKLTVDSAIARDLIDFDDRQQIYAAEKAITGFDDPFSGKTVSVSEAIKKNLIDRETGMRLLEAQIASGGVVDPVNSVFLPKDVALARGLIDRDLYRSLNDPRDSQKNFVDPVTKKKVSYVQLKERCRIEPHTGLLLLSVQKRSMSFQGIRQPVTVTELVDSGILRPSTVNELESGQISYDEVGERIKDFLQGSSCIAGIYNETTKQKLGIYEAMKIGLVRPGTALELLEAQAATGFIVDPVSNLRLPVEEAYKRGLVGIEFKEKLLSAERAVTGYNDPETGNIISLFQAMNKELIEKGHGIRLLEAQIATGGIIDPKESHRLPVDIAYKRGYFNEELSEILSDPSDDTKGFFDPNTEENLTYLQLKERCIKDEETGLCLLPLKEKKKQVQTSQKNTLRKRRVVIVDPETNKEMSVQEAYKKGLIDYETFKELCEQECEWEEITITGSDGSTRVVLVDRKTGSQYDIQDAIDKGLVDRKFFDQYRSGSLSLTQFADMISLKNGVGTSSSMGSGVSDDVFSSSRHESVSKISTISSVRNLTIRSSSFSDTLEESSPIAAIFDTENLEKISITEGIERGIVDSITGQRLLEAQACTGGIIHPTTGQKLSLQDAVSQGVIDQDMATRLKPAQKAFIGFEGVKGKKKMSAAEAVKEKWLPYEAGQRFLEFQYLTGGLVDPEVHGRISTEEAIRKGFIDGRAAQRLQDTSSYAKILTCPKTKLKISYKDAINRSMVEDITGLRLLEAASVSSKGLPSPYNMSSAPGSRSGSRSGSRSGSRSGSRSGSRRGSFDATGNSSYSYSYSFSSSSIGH

In article doi:10.1101/2020.07.03.182295 (bioRxiv, 2020):

B1: plakoglobin (protein, UniProt P14923 1-745)
chain: MEVMNLMEQPIKVTEWQQTYTYDSGIHSGANTCVPSVSSKGIMEEDEACGRQYTLKKTTTYTQGVPPSQGDLEYQMSTTARAKRVREAMCPGVSGEDSSLLLATQVEGQATNLQRLAEPSQLLKSAIVHLINYQDDAELATRALPELTKLLNDEDPVVVTKAAMIVNQLSKKEASRRALMGSPQLVAAVVRTMQNTSDLDTARCTTSILHNLSHHREGLLAIFKSGGIPALVRMLSSPVESVLFYAITTLHNLLLYQEGAKMAVRLADGLQKMVPLLNKNNPKFLAITTDCLQLLAYGNQESKLIILANGGPQALVQIMRNYSYEKLLWTTSRVLKVLSVCPSNKPAIVEAGGMQALGKHLTSNSPRLVQNCLWTLRNLSDVATKQEGLESVLKILVNQLSVDDVNVLTCATGTLSNLTCNNSKNKTLVTQNSGVEALIHAILRAGDKDDITEPAVCALRHLTSRHPEAEMAQNSVRLNYGIPAIVKLLNQPNQWPLVKATIGLIRNLALCPANHAPLQEAAVIPRLVQLLVKAHQDAQRHVAAGTQQPYTDGVRMEEIVEGCTGALHILARDPMNRMEIFRLNTIPLFVQLLYSSVENIQRVAAGVLCELAQDKEAADAIDAEGASAPLMELLHSRNEGTATYAAAVLFRISEDKNPDYRKRVSVELTNSLFKHDPAAWEAAQSMIPINEPYGDDMDATYRPMYSSDVPLDPLEMHMDMDGDYPIDTYSDGLRPPYPTADHMLA

Target: T1, FLAG-tagged R54C αA-crystallin expressed in SRA 01/04 cells (human) (UniProt P02489)
T1 sequence: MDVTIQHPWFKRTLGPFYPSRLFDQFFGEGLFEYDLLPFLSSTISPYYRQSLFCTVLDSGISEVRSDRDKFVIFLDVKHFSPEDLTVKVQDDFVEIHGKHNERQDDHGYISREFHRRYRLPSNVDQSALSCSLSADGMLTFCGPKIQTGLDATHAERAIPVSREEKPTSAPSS
Assay: affinity purification with mass spectrometry

binding, binds:
desmoglein (human (endogenous in SRA 01/04))
desmoplakin (from UniProt P15924 1-2871)
B1

No constants are given. Whether binding was seen depends on the method and setting. In cells and extracts the contact can be indirect. A yes stands for co-enrichment or nearness to the bait. Other partners may have been found. Sequences can lack the tags named with a protein.
